The campaign covered roughly 390,000 compounds. About 910 (0.23%) were called active. The inconclusive results got no clear call from the source; some entries with a clear call stand among them for comparison. The call rests on the fitted dose curve; in most records, active means well fitted inhibition curve with a large enough effect; inconclusive means small, poorly fitted or top-dose-only effect; inactive means no such curve, though single readings can be large or run the other way. Potencies of inconclusive entries are doubtful fits and often do not repeat.
Target: Ubiquitin carboxyl-terminal hydrolase 1 (Homo sapiens) (UniProt O94782)
Experiment: Inhibitors of USP1/UAF1: Primary Screen; further: nearly all actives have a fitted effect of over 60% in size
Conditions: recombinant USP1/UAF1, Ub-Rhodamine cleavage fluorescence; activity change, negative = inhibition: at 57.1 µM (top of the series)
In short: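 1 nM enzyme complex + cpd, 15 min RT; start with Ub-Rho 150nM final; kinetic fluorescence ex 480/em 540, 6 reads q60 s. Buffer 50mM HEPES pH 7.8, 0.5mM EDTA, 0.1 mg/ml BSA, 1mM TCEP, 0.01% Tween-20.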
On the % scale 0 is the no-effect control and ±100 the full control effect; potency means the concentration at half of the fitted maximal effect.

Amino acid sequences for entries named in this document (tags omitted). A change or cut given only in a name is not applied to a line headed by its entry.
UniProt O94782: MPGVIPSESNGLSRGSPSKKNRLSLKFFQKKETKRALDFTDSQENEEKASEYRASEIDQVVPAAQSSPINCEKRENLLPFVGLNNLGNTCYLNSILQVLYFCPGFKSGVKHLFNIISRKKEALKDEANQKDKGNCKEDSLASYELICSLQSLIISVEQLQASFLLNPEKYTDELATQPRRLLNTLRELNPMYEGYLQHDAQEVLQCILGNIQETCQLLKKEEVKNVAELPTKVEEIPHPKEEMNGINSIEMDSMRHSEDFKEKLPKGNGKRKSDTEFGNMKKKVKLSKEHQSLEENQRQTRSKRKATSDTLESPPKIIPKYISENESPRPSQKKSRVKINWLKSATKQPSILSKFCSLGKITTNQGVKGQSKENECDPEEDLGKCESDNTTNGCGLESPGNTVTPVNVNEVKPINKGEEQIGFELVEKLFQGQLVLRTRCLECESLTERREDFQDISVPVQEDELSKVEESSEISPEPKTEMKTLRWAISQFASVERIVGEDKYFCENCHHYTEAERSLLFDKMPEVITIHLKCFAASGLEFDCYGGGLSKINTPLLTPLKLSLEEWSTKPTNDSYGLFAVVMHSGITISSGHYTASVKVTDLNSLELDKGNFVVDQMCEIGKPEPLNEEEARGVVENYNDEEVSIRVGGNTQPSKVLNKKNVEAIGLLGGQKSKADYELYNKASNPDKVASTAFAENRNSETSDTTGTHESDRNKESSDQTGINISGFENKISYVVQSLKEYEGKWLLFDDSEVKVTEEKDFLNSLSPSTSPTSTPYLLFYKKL

Potency, inconclusive:
Cc1ccc(C(=O)NCC(=O)OCC(=O)/C=C2\N(C)c3ccccc3C2(C)C)cc1C 39.8 µM [inhibitor, partial curve], Cc1ccc(NC(=O)C2(S(=O)(=O)c3ccc(Cl)cc3)CC2)c(Br)c1 5.62 µM [inhibitor, partial curve, poor fit], COc1cc(NC(=O)Cn2c(C)cc3ccccc3c2=O)cc(OC)c1OC 5.01 µM [inhibitor, partial curve, poor fit], COC(=O)c1cc(-c2c(-c3ccc4c(c3)OCO4)noc2-c2ccsc2)cc([N+](=O)[O-])c1 44.7 µM [inhibitor, partial curve, poor fit], O=C(C[n+]1cccc2ccccc21)c1ccc([N+](=O)[O-])cc1 22.4 µM [inhibitor, single point], COc1ccc(NC(=O)Cn2nnc(C(=O)NCc3ccccc3Cl)c2N)cc1Cl 3.55 µM [inhibitor, full curve, poor fit], O=C(CSc1nnnn1C1CCCC1)Nc1cccc(NC(=O)c2ccco2)c1 1 µM [inhibitor, partial curve], COc1ccc(OC)c(CCNC(=O)CC2Oc3ccc(C)cc3NC2=O)c1 (configuration not stated) 44.7 µM [inhibitor, partial curve, poor fit], CCCc1[nH]nc2c1C(C1CCCCC1)C(C#N)=C(N)O2 (configuration not stated) 44.7 µM [inhibitor, partial curve, poor fit], O=C(Nc1cccc(C(F)(F)F)c1)c1cc(Br)cc2c1OCC2 7.94 µM [inhibitor, partial curve, poor fit], COc1ccc(OC(=O)COc2cc(C)ccc2C)cc1 39.8 µM [inhibitor, partial curve], CCCC[n+]1ccn(-c2nc3ccccc3nc2[N-]S(=O)(=O)c2ccc(Br)cc2)c1 25.1 µM [inhibitor, partial curve], Nc1ccccc1-c1ccc([N+](=O)[O-])cc1 8.91 µM [inhibitor, partial curve, poor fit], CCOc1ccc(Nc2ncnc3onc(-c4ccc(Cl)cc4)c23)cc1 5.62 µM [inhibitor, partial curve], COc1cc(NC(=O)Cn2cc(S(=O)(=O)N3CCC(C)CC3)c3ccccc3c2=O)cc(OC)c1OC 0.355 µM [inhibitor, full curve, poor fit], CCOC(=O)C1=C(CNCc2ccc(Cl)cc2)NC(=O)NC1c1ccccc1 (configuration not stated) 50.1 µM [inhibitor, single point], O=C(COC(=O)c1ccc([N+](=O)[O-])o1)NC1CCS(=O)(=O)C1 (configuration not stated) 35.5 µM [inhibitor, single point], COc1ccc(Oc2ncnc3c2oc2ccccc23)cc1 50.1 µM [inhibitor, single point], CCN(CC)c1ccc2cc(S(=O)(=O)c3ccc(C)cc3)c(=O)oc2c1 31.6 µM [inhibitor, partial curve, poor fit], C[C@H](CO)N1C[C@H](C)[C@@H](CN(C)S(=O)(=O)c2ccc(Oc3ccccc3)nc2)OCc2cn(nn2)CCCC1=O 0.251 µM [inhibitor, full curve, poor fit], Nc1c(C(=O)Nc2cccc(C(=O)O)c2)sc2nc3c(cc12)CCCC3 31.6 µM [inhibitor, partial curve, poor fit], CCOC(=O)c1c(-c2ccc(OC)cc2)oc2ccc(OCc3ccc(F)cc3F)cc12 50.1 µM [inhibitor, partial curve, poor fit], CCC(CO)Oc1cc(NCc2ccc(F)cc2)c2ncn(C(C)C)c2c1 (configuration not stated) 31.6 µM [inhibitor, partial curve], CCn1cc(/C=C(\NC(=O)c2ccc(OC)c(OC)c2)C(=O)NCCCn2ccnc2)c2ccccc21 15.8 µM [inhibitor, partial curve], COc1ccc(OCCCn2c(C)nc3cc(C)c(C)cc32)cc1 4.47 µM [inhibitor, full curve, poor fit], Nc1c(S(=O)(=O)c2ccccc2)c2nc3ccccc3nc2n1Cc1ccco1 31.6 µM [inhibitor, single point], COc1ccc(-c2ccc(-c3cc(=O)oc4cc(OC)c(OC)c(OC)c34)cc2)cc1F 112 µM [inhibitor, partial curve, poor fit], COc1ccc(-c2nc3sc(CCNC(=O)c4ccc(C(C)(C)C)cc4)c(C)n3n2)cc1 11.2 µM [inhibitor, partial curve], CCOC(=O)c1c(C)[nH]c(C(=O)CN2C(=O)NC(C)(c3ccc4ccccc4c3)C2=O)c1C (configuration not stated) 35.5 µM [inhibitor, partial curve], COc1cc2c(cc1OC)C(C)N(C(=O)CCc1c[nH]c3ccccc13)CC2 (configuration not stated) 28.2 µM [inhibitor, partial curve], Cc1cn2c(=O)c(S(=O)(=O)NCCc3ccc(Cl)cc3)c(C)nc2s1 44.7 µM [inhibitor, partial curve, poor fit], CC(=O)N[C@@H](CS)C(=O)O 39.8 µM [inhibitor, single point], COc1ccc(C)cc1NCC(=O)Nc1ccc(C(C)(C)C)cc1 25.1 µM [inhibitor, partial curve], CCN(CC)C(=O)[C@H]1CC(CC(=O)NCC23CC4CC(CC(C4)C2)C3)C(=O)N2CCc3c([nH]c4ccccc34)[C@]12C (some centres not stated) 44.7 µM [inhibitor, partial curve, poor fit], Oc1ccccc1N=Cc1c(O)ccc2ccccc12 31.6 µM [inhibitor, partial curve], CC(C)Cc1nn2c(=O)cc(O)nc2s1 0.562 µM [inhibitor, full curve, poor fit], Cc1ccc2c(c1)C(=O)C(=O)N2CCCOc1ccccc1C 15.8 µM [inhibitor, partial curve], Cc1cccc(NC(=O)CCS(=O)(=O)c2cc(Br)cc3c2N(C(=O)C2CC2)CC3)c1C 0.316 µM [inhibitor, full curve, poor fit], COc1ccc(OC)c(NC(=O)c2ccc(CSc3ncccn3)cc2)c1 0.355 µM [inhibitor, full curve, poor fit], Cc1ccc(C(=O)c2cn(CC(=O)Nc3ccc4c(c3)OCCO4)c3nc(C)ccc3c2=O)cc1 44.7 µM [inhibitor, partial curve, poor fit], O=C1C2C3C=CC(CO)(O3)C2C(=O)N1c1ccccc1-c1ccccc1 (configuration not stated) 0.708 µM [inhibitor, full curve, poor fit], COc1ccc(NC(=O)c2cc(C)no2)cc1Cl 44.7 µM [inhibitor, partial curve, poor fit]

Potency, active:
CCCN1C(=O)S/C(=C/c2ccc(N3CCOCC3)o2)C1=O 28.2 µM, COc1cc(OC)c(-c2c3cc(O)c(=O)cc-3oc3cc(O)c(O)cc23)cc1OC 25.1 µM

Activity change, negative = inhibition, inactive:
CN1c2ccccc2Oc2nnc(N3CCN(Cc4ccccc4)CC3)cc21 -5.62%, O=C(NCc1ccncc1)C1CCCCC1 -4.22%, CCNC(=O)CC1C(=O)N(c2ccc(C)cc2)C(=O)N1Cc1ccc(C)cc1 (configuration not stated) -25.6%, COc1ccccc1N(Cc1cc2cccc(C)c2[nH]c1=O)C(=O)c1cccc(Cl)c1 -2.84%, COc1ccc2nc(-n3c(C)ccc3C)sc2c1 -17.2%, CCOc1ccc(N2C=Nc3ccc(OCC)cc3C2)cc1 -21.3%, CC(C)(C)Cc1nnc(NC(=O)Cc2cccs2)s1 -1.9%, Cc1ccc(Cl)c(OCCN2CCCC(C)C2)c1 (configuration not stated) -2.41%, Cc1ccc(N2CCN(C(=O)CCS(=O)(=O)c3cc4c(cc3Cl)NC(=O)CO4)CC2)c(C)c1 -11.6%, Cc1ccc(C2C3=C(CCCC3=O)OC3=C2C(=O)CCC3)cc1 -4.23%, S=C1NC2=C(CCC/C2=C\c2ccc(Cl)cc2)C(c2ccc(Cl)cc2)N1 (configuration not stated) -9.03%, CCc1ccc2occ(CC(=O)NCc3ccccc3)c2c1 -14.5%, CCOC(=O)c1c(C)[nH]c(N=Nc2ccc(OC)cc2)c1C -19.5%, CC(=O)N1CCc2c(sc3c2c(=O)n(-c2ccccc2)c(=O)n3CC(=O)c2ccc(F)cc2)C1 -21.2%, O=C(O)C1C2CCC(O2)C1C(=O)Nc1ccc(Cl)cc1F (configuration not stated) -12.6%, Oc1ccccc1C=NNC(=S)NN=Cc1ccccc1O -9.79%, CC(=O)Nc1cccc(NC(=O)COc2ccc3c(c2)CCC3)c1 -9.99%, Cc1ccc2c(c1)C(c1ccc(F)cc1)N(C(=O)c1cc3ccccc3oc1=O)CC(=O)N2 (configuration not stated) -25.8%, O=C(NCc1cccnc1)c1cccc(OC2CCN(Cc3ccc(CO)o3)CC2)c1 4.77%, COc1cccc(N2CCN(C(=O)Cn3ncc4c3-c3ccccc3OC4)CC2)c1 -21.8%, Clc1ccccc1Cc1noc(CN2CCN(Cc3ccccn3)CC2)n1 -15.5%, Cn1c(SCC(=O)Nc2ccccc2Oc2ccccc2)nnc1C1CC1 -20.6%, Cc1cc(C)cc(OC(=O)CCN2C(=O)C3C4C=CC(C5CC45)C3C2=O)c1 (configuration not stated) -3.13%
